PubChem BioAssay AID1224830 | NIAID – 2016
Here is one part, drawn at random, of about 18,000 reagents tested. About 2,900 of all reagents (16%) were called active. 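Calls are made per well; low scores hint the gene aids the LPS response, high scores that it dampens it.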 A number with no mark means an inactive call. Repeated entries: four replicate wells of each siRNA pool.

Assay: 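Genes whose knock-down alters the TNF-alpha reporter response to LPS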 (primary screen)
System: human THP-1 monocytic leukaemia cells, TNF dual-luciferase reporter clone, PMA-differentiated to macrophage-like cells
Reagent: siRNA pool against human genes, 50 nM
Duration: LPS for 4 h, given about 3 days after siRNA transfection
Conditions: bacterial LPS (TLR4 ligand), 10 ng/ml
Measured: 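TNF firefly reporter luminescence divided by renilla, normalised to the plate median, then turned into a robust z-score for each replicate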
Direction: TNF reporter robust z-score: higher = stronger TNF reporter response to LPS
Hit rule: 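Each well counts as active if its z-score is over 2.8 or under -1.5; controls are left without a call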

target gene,TNF reporter robust z-score
CMKLR2 (chemerin chemokine-like receptor 2),-1.62 (active)
CMKLR2 (chemerin chemokine-like receptor 2),-0.79
CMKLR2 (chemerin chemokine-like receptor 2),-1.39
CMKLR2 (chemerin chemokine-like receptor 2),-0.71
MLST8 (MTOR associated protein MLST8),0.14
MLST8 (MTOR associated protein MLST8),0.58
MLST8 (MTOR associated protein MLST8),0.27
MLST8 (MTOR associated protein MLST8),1.31
THAP11 (THAP domain containing 11),-0.54
THAP11 (THAP domain containing 11),-0.25
THAP11 (THAP domain containing 11),0.08
THAP11 (THAP domain containing 11),0.3
SLC24A2,1.58
SLC24A2,2.8 (active)
SLC24A2,2.25
SLC24A2,0.88
STX4 (syntaxin 4),3.52 (active)
STX4 (syntaxin 4),1.75
STX4 (syntaxin 4),3.45 (active)
STX4 (syntaxin 4),3.83 (active)
COL8A1 (collagen type VIII alpha 1 chain),0.12
COL8A1 (collagen type VIII alpha 1 chain),0.85
COL8A1 (collagen type VIII alpha 1 chain),0.13
COL8A1 (collagen type VIII alpha 1 chain),-0.57
EEF1G (eukaryotic translation elongation factor 1 gamma),0.31
EEF1G (eukaryotic translation elongation factor 1 gamma),2.15
EEF1G (eukaryotic translation elongation factor 1 gamma),0.8
EEF1G (eukaryotic translation elongation factor 1 gamma),0.29
ANKRD49 (ankyrin repeat domain 49),0.05
ANKRD49 (ankyrin repeat domain 49),0.98
ANKRD49 (ankyrin repeat domain 49),-0.02
ANKRD49 (ankyrin repeat domain 49),0.34

Records listed so far whose gene name begins with T or t (4):
target gene,TNF reporter robust z-score
THAP11 (THAP domain containing 11),-0.54
THAP11 (THAP domain containing 11),-0.25
THAP11 (THAP domain containing 11),0.08
THAP11 (THAP domain containing 11),0.3

Additional records follow:
target gene,TNF reporter robust z-score
ANKMY1 (ankyrin repeat and MYND domain containing 1),-0.89
ANKMY1 (ankyrin repeat and MYND domain containing 1),-1.14
ANKMY1 (ankyrin repeat and MYND domain containing 1),-1.01
ANKMY1 (ankyrin repeat and MYND domain containing 1),-0.66
ZNF710 (zinc finger protein 710),-0.35
ZNF710 (zinc finger protein 710),-0.47
ZNF710 (zinc finger protein 710),-0.13
ZNF710 (zinc finger protein 710),-0.21
RASA3 (RAS p21 protein activator 3),-1.28
RASA3 (RAS p21 protein activator 3),-0.8
RASA3 (RAS p21 protein activator 3),-0.85
RASA3 (RAS p21 protein activator 3),-1.1
VTA1 (vesicle trafficking 1),0.1
VTA1 (vesicle trafficking 1),0.37
VTA1 (vesicle trafficking 1),-0.25
VTA1 (vesicle trafficking 1),0.95
ARHGAP26 (Rho GTPase activating protein 26),2.09
ARHGAP26 (Rho GTPase activating protein 26),3.04 (active)
ARHGAP26 (Rho GTPase activating protein 26),1.7
ARHGAP26 (Rho GTPase activating protein 26),3.07 (active)
HBD (hemoglobin subunit delta),-0.55
HBD (hemoglobin subunit delta),-0.3
HBD (hemoglobin subunit delta),-1.22
HBD (hemoglobin subunit delta),-0.51
ANKFN1 (ankyrin repeat and fibronectin type III domain containing 1),0.91
ANKFN1 (ankyrin repeat and fibronectin type III domain containing 1),0.96
ANKFN1 (ankyrin repeat and fibronectin type III domain containing 1),-0.31
ANKFN1 (ankyrin repeat and fibronectin type III domain containing 1),0.98
IMPA2 (inositol monophosphatase 2),-1.19
IMPA2 (inositol monophosphatase 2),-0.5
IMPA2 (inositol monophosphatase 2),-0.75
IMPA2 (inositol monophosphatase 2),-0.41
OSER1 (oxidative stress responsive serine rich 1),1.05
OSER1 (oxidative stress responsive serine rich 1),0.65
OSER1 (oxidative stress responsive serine rich 1),0.16
OSER1 (oxidative stress responsive serine rich 1),1.11
TMEM143 (transmembrane protein 143),0.53
TMEM143 (transmembrane protein 143),-0.04
TMEM143 (transmembrane protein 143),0.34
TMEM143 (transmembrane protein 143),-0.02
CYBRD1 (cytochrome b reductase 1),-1.39
CYBRD1 (cytochrome b reductase 1),-2.02 (active)
CYBRD1 (cytochrome b reductase 1),-0.91
